Taken from: PubChem BioAssay AID1224830 (NIAID, 2016)
Screen: 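Regulators of TLR4 signalling towards TNF-alpha in macrophage-like cells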 (primary screen). Cells: human THP-1 monocytic leukaemia cells, TNF dual-luciferase reporter clone, PMA-differentiated to macrophage-like cells. Knock-down reagent: siRNA pool against human genes, 50 nM. Timing: LPS for 4 h, given about 3 days after siRNA transfection. Challenge: bacterial LPS (TLR4 ligand), 10 ng/ml. Measurement: 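TNF firefly reporter luminescence divided by renilla, normalised to the plate median, then turned into a robust z-score for each replicate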. Direction: TNF reporter robust z-score: higher = stronger TNF reporter response to LPS. Hit rule: 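Each well counts as active if its z-score is over 2.8 or under -1.5; controls are left without a call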.
In all, the deposit lists about 18,000 reagents; this is a part drawn at random. About 2,900 of them (16%) count as active. 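Calls are made per well; low scores hint the gene aids the LPS response, high scores that it dampens it.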 Repeated entries: four replicate wells of each siRNA pool.

| TNF reporter robust z-score | outcome | gene | PubChem SID |
| --- | --- | --- | --- |
| 1.06 | inactive | KAZN | SID315455110 |
| 0.47 | inactive | KAZN | SID315455110 |
| 0.97 | inactive | KAZN | SID315455110 |
| -0.36 | inactive | KAZN | SID315455110 |
| -0.83 | inactive | RMDN2 | SID315462492 |
| 2.42 | inactive | RMDN2 | SID315462492 |
| 1.13 | inactive | RMDN2 | SID315462492 |
| -1.02 | inactive | RMDN2 | SID315462492 |
| 0.61 | inactive | NIPSNAP1 | SID315452612 |
| -0.35 | inactive | NIPSNAP1 | SID315452612 |
| -0.28 | inactive | NIPSNAP1 | SID315452612 |
| 1.15 | inactive | NIPSNAP1 | SID315452612 |
| 1.42 | inactive | C19orf18 | SID315462330 |
| 2.03 | inactive | C19orf18 | SID315462330 |
| 0.44 | inactive | C19orf18 | SID315462330 |
| 1.04 | inactive | C19orf18 | SID315462330 |
| -0.13 | inactive | PRAM1 | SID315460194 |
| 0.51 | inactive | PRAM1 | SID315460194 |
| -0.24 | inactive | PRAM1 | SID315460194 |
| 0.75 | inactive | PRAM1 | SID315460194 |
| -0.31 | inactive | CS | SID315448116 |
| 0.48 | inactive | CS | SID315448116 |
| 0.54 | inactive | CS | SID315448116 |
| -0.25 | inactive | CS | SID315448116 |
| -1.01 | inactive | SHF | SID315460835 |
| -0.47 | inactive | SHF | SID315460835 |
| -0.43 | inactive | SHF | SID315460835 |
| -0.67 | inactive | SHF | SID315460835 |
| -1.5 | inactive | PDZD4 | SID315458493 |
| -1.88 | active | PDZD4 | SID315458493 |
| -1.96 | active | PDZD4 | SID315458493 |
| -1.9 | active | PDZD4 | SID315458493 |
| -0.01 | inactive | KRTAP10-10 | SID315464291 |
| 0.17 | inactive | KRTAP10-10 | SID315464291 |
| -0.46 | inactive | KRTAP10-10 | SID315464291 |
| 0.67 | inactive | KRTAP10-10 | SID315464291 |
| -0.35 | inactive | CD1B | SID315447752 |
| 0.47 | inactive | CD1B | SID315447752 |
| -0.74 | inactive | CD1B | SID315447752 |
| -0.45 | inactive | CD1B | SID315447752 |
| -1.37 | inactive | ZBTB16 | SID315452253 |
| -0.92 | inactive | ZBTB16 | SID315452253 |
| -1.24 | inactive | ZBTB16 | SID315452253 |
| -1.02 | inactive | ZBTB16 | SID315452253 |
| 0.73 | inactive | ABCA13 | SID315462593 |
| -0.3 | inactive | ABCA13 | SID315462593 |
| -0.34 | inactive | ABCA13 | SID315462593 |
| -0.47 | inactive | ABCA13 | SID315462593 |
| -1.01 | inactive | CUTA | SID315456797 |
| -0.85 | inactive | CUTA | SID315456797 |
| -0.23 | inactive | CUTA | SID315456797 |
| 0 | inactive | CUTA | SID315456797 |
| -0.99 | inactive | MRGPRX4 | SID315461418 |
| -0.11 | inactive | MRGPRX4 | SID315461418 |
| 0.02 | inactive | MRGPRX4 | SID315461418 |
| 0 | inactive | MRGPRX4 | SID315461418 |
| -0.73 | inactive | SCN8A | SID315451316 |
| -0.55 | inactive | SCN8A | SID315451316 |
| 1.03 | inactive | SCN8A | SID315451316 |
| 1.21 | inactive | SCN8A | SID315451316 |
| 1.09 | inactive | ZNF451 | SID315455630 |
| -0.5 | inactive | ZNF451 | SID315455630 |
| -0.06 | inactive | ZNF451 | SID315455630 |
| -0.67 | inactive | ZNF451 | SID315455630 |
| 0.5 | inactive | TNIP2 | SID315459234 |
| -0.53 | inactive | TNIP2 | SID315459234 |
| -0.8 | inactive | TNIP2 | SID315459234 |
| 0.8 | inactive | TNIP2 | SID315459234 |
| 2.03 | inactive | CENPA | SID315447876 |
| 1.92 | inactive | CENPA | SID315447876 |
| 0.44 | inactive | CENPA | SID315447876 |
| -0.58 | inactive | CENPA | SID315447876 |
| -1.06 | inactive | NDUFB2 | SID315450177 |
| -1.28 | inactive | NDUFB2 | SID315450177 |
| -0.55 | inactive | NDUFB2 | SID315450177 |
| 0.75 | inactive | NDUFB2 | SID315450177 |
| 0.26 | inactive | COBL | SID315455099 |
| 0.63 | inactive | COBL | SID315455099 |
| 0.92 | inactive | COBL | SID315455099 |
| 0.79 | inactive | COBL | SID315455099 |
| -0.98 | inactive | LRRC14 | SID315453479 |
| -1.24 | inactive | LRRC14 | SID315453479 |
| -1.17 | inactive | LRRC14 | SID315453479 |
| -0.39 | inactive | LRRC14 | SID315453479 |
| 1.33 | inactive | OR13F1 | SID315462055 |
| 2.84 | active | OR13F1 | SID315462055 |
| -1.43 | inactive | OR13F1 | SID315462055 |
| 0.03 | inactive | OR13F1 | SID315462055 |
| 0.43 | inactive | MFRP | SID315460024 |
| 0.68 | inactive | MFRP | SID315460024 |
| 0.29 | inactive | MFRP | SID315460024 |
| 0.63 | inactive | MFRP | SID315460024 |
| 1.21 | inactive | TENM1 | SID315453882 |
| 0.6 | inactive | TENM1 | SID315453882 |
| -0.81 | inactive | TENM1 | SID315453882 |
| -0.85 | inactive | TENM1 | SID315453882 |
| -0.47 | inactive | POLR1E | SID315458926 |
| 0.33 | inactive | POLR1E | SID315458926 |
| -0.15 | inactive | POLR1E | SID315458926 |
| -0.43 | inactive | POLR1E | SID315458926 |
| 0.33 | inactive | PDE12 | SID315463084 |
| -0.46 | inactive | PDE12 | SID315463084 |
| 0.59 | inactive | PDE12 | SID315463084 |
| -0.36 | inactive | PDE12 | SID315463084 |
| -0.88 | inactive | PEX19 | SID315450988 |
| -0.42 | inactive | PEX19 | SID315450988 |
| -1.31 | inactive | PEX19 | SID315450988 |
| 0.02 | inactive | PEX19 | SID315450988 |
| -1.49 | inactive | UBIAD1 | SID315456212 |
| -0.21 | inactive | UBIAD1 | SID315456212 |
| -0.85 | inactive | UBIAD1 | SID315456212 |
| -0.09 | inactive | UBIAD1 | SID315456212 |

In a second layout: results already given.
{"gene": "KRTAP10-10", "PubChem SID": "SID315464291", "TNF reporter robust z-score": -0.01, "outcome": "inactive"}
{"gene": "KRTAP10-10", "PubChem SID": "SID315464291", "TNF reporter robust z-score": 0.17, "outcome": "inactive"}
{"gene": "KRTAP10-10", "PubChem SID": "SID315464291", "TNF reporter robust z-score": -0.46, "outcome": "inactive"}
{"gene": "KRTAP10-10", "PubChem SID": "SID315464291", "TNF reporter robust z-score": 0.67, "outcome": "inactive"}
{"gene": "CD1B", "PubChem SID": "SID315447752", "TNF reporter robust z-score": -0.35, "outcome": "inactive"}
{"gene": "CD1B", "PubChem SID": "SID315447752", "TNF reporter robust z-score": 0.47, "outcome": "inactive"}
{"gene": "CD1B", "PubChem SID": "SID315447752", "TNF reporter robust z-score": -0.74, "outcome": "inactive"}
{"gene": "CD1B", "PubChem SID": "SID315447752", "TNF reporter robust z-score": -0.45, "outcome": "inactive"}
{"gene": "ZBTB16", "PubChem SID": "SID315452253", "TNF reporter robust z-score": -1.37, "outcome": "inactive"}
{"gene": "ZBTB16", "PubChem SID": "SID315452253", "TNF reporter robust z-score": -0.92, "outcome": "inactive"}
{"gene": "ZBTB16", "PubChem SID": "SID315452253", "TNF reporter robust z-score": -1.24, "outcome": "inactive"}
{"gene": "ZBTB16", "PubChem SID": "SID315452253", "TNF reporter robust z-score": -1.02, "outcome": "inactive"}
{"gene": "ABCA13", "PubChem SID": "SID315462593", "TNF reporter robust z-score": 0.73, "outcome": "inactive"}
{"gene": "ABCA13", "PubChem SID": "SID315462593", "TNF reporter robust z-score": -0.3, "outcome": "inactive"}
{"gene": "ABCA13", "PubChem SID": "SID315462593", "TNF reporter robust z-score": -0.34, "outcome": "inactive"}
